Assay results: PMC3275627
These are yes or no findings as the source states them, for the method shown. In cells and extracts the contact can be indirect. A result given as binding can be weak or reduced; the word gives no strength. Tags and fused reporters may be left off the sequences shown.

Chains of the proteins cited; added tags and fusions are not shown. Lines headed by an entry give the natural chain unless they say otherwise; changes in a name come on top.
UniProt Q10369: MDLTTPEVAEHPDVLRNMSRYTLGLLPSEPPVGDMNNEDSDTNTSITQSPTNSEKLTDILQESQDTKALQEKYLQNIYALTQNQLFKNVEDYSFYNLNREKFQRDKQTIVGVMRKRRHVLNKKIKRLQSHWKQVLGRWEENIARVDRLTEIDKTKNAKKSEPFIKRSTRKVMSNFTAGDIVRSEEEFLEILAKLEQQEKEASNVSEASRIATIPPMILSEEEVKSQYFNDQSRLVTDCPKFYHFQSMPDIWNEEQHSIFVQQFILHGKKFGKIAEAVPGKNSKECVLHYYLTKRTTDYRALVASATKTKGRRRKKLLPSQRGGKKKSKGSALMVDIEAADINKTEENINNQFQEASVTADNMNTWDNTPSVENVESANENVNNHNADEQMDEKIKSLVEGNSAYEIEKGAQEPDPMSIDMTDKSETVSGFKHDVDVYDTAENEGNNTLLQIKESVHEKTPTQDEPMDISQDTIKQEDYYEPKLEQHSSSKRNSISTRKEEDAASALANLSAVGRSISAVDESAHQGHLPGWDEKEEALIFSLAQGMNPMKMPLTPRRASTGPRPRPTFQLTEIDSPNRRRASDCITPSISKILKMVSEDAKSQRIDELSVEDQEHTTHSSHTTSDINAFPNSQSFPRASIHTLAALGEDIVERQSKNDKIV

Target: Snt1-Myc fusion protein (S. pombe) (UniProt Q10369)
Assay: co-IP; S. pombe cells expressing both tagged proteins, lysed under native conditions (1% IGEPAL CA630, 150 mM NaCl, 50 mM Tris-HCl pH 8.0); anti-Myc immunoprecipitation on Protein G Dynabeads, immunoblot with anti-HA (per results and legend)

B1: Set3-HA fusion protein (protein, UniProt Q10362 1-859)
chain: MWKIRCVCPFEDDDGFTIQCESCEVWQHAVCVNIDANNVPEKYFCEQCQPRPIDADKAHKIQLARLQREEEQSRILSRSRSSNNKRRTSFGKNGASPTHSASPRQGNNTGANGALFSQSTNSSNSGSYRNSVTGATLPNAHAPHSQNRRRRSNHLNNPPEAPITEASNEYVYSFHLEYVPLESNTFSASALEYSKNLDLKNLDESEVLMDGCQVVPISSSKFCCSRFGLVSTCEIPPNTPIMEVKGRVCTQNEYKSDPKNQYNILGAPKPHVFFDSNSQLVVDSRVAGSKARFARKGCQSNSVVSSVYMNGSNSVPRFILYSTTHIAPETEIIGDWTLDISHPFRQFAPGMSRPSFNMEELELLSEVLSTFLSFNECASQDKKNCVFSRVTKYIKAARRASTANRVSVAKDRLSLTPSSTPSTPSPAESLPQPSNPTSVYAKSLKEFWLDKYRLSILQKWPAVKSLPTESVGIDVVMEPKLQPSVKEKKPTKDLQSPLPSVEEDSSNRDKKTDIADLHTDSKVGIADVLSPISPDAALQSDGPLKKAKEPEESSITPTTPPSFNVGESLSRRSASPLQHPRTSPDMLDKTSPCKRGLGTITTVHKKHGSVDHLPSVKRRRSIANDFHGKPDYNKRSLSIERKPEAFKTKGDRPHKVHPSFHRNSDSKLKLEPSSKEKSGSMFFNTLRTVKDKSHVHDTQRSSDVNFSRQNGTRSHSPSVSPVGFSFDKSPVTTPPLPTAPAPVITSRHALVNNQFPTNNPNILDHKANNGDDISNALNTSRSENKPNSNLVQGSVVKPSNTSASALPTSAPKKLSLSEYRQRRQQNILHQQSKDNQAHGDTARPHTVPAATVSNPSFTR
- binding: binds

B2: Hif2-HA fusion protein (protein, UniProt O74845 1-564)
chain: MDTNQVNYIIWRYLKECGYSHTKFAFERETGIQNLDKQWGSTCQVGALVEILQKGLQYVELEKHYVDNHSSNEEASKTSIDGESLVNENPCKLPFYLTVPHICETTLTKADSTNGFCEHNNSNDHQLKILQDKGSGSPSSPVMPFKDKIEKRDIDITMADESNVEKDPARPIAVYNSSPVTEITEIKQVTFTGGEDIKSDFFKVIPTKHPVTCADWRPLLQENYHVYEFSIGMTNATLASVSICEEQNDFKAKTDYCLQSSFDNQDITGVAWNNSGSFLAYAFFSGVIEIYDSHGSQILSFHNNKGPVLSLKWSGTDTYLAAGSADGTITLFDQLKQTQYSIDTLASSVLDIEWISFDEFVTSDVEGSLRVYKVDGKAPVSTVSHAHDNSIVALRYNLRISLLLTASSDTTVKLWSRGDAGAFECLHVFSFSSPVNCIDWNLREGTPILAVASNSIVSMYNAISLQQLAVFMRHTAPVSALSFSHNGRYLATGDTSGGVCIWSCKTAKLFKELGSDNSELIAVTNVLPEEQVNFLRWSFDDKDLLIGKQKKEIICCCDFLHDSL
- binding: binds
